Measurements published in US8835136B2, “Engineered amine dehydrogenases and methods of use thereof” (Georgia Tech Research Corporation, priority 2012, dated 2014).
At least one read-out could not be matched to a standard name with certainty.

Key:
[1] = C1-AmDH amination at 60° C. in 4 M ammonium formate buffer; format: biochemical
Experimental: All ketone substrates for the amination direction were measured at 20 mM and dissolved at 60° C. in 4 M ammonium formate buffer. Enzyme specificity was measured at 60° C. for 5 min. with NADH as the cofactor at 340 nm.
(§1) The values for acetophenone, pFPA; NADH and NH3 were determined and are summarized in Table XX, all measured at 60° C.

C1-AmDH kinetic values = format: biochemical; details: 60° C.
Experimental: as §1

B1: C1-AmDH: chimeric AmDH: F-AmDH substrate binding domain with L-AmDH NAD-binding domain, SEQ ID NO:20 (protein)
chain: SLVEKTSIIKDFTLFEKMSEHEQVVFCNDPATGLRAIIAIHDTTLGPALGGCRMQPYNSVEEALEDALRLSKGMTYSCAASDVDFGGGKAVIIGDPQKDKSPELFRAFGQFVDSLGGRFYTGTDMGTNMEDFIHAMKETNCIVGVPEAYGSSGNPSPATAYGVYRGMKAAAKEAFGSDSLEGKVVAVQGVGNVAYHLCRHLHEEGAKLIVTDINKEAVARAVEEFGAKAVDPNDIYGVECDIFAPCALGGIINDQTIPQLKAKVIAGSALNQLKEPRHGDMIHEMGIVYAPDYVINAGGCINVADELYGYNRERAMKKIEQIYDNIEKVFAIAKRDNIPTYVAADRMAEERIETMRKARSQFLQNGHHILSRRRAR
kcat/KM, Acetophenone [1]: 48 M⁻¹ s⁻¹ | kcat/KM, pFPA [1]: 1127 M^−1 s^−1 | kcat/KM, NADH (C1-AmDH kinetic values): 20000 M⁻¹ s⁻¹ | kcat/KM, NH3 (C1-AmDH kinetic values): 3 M⁻¹ s⁻¹
